This note sets out measurements from US20090155283A1 (published 2009).

Sequences of proteins named here, by UniProt entry; tags and fusion partners are left off. Residues count along the entry.
UniProt P14778, residues 18-332: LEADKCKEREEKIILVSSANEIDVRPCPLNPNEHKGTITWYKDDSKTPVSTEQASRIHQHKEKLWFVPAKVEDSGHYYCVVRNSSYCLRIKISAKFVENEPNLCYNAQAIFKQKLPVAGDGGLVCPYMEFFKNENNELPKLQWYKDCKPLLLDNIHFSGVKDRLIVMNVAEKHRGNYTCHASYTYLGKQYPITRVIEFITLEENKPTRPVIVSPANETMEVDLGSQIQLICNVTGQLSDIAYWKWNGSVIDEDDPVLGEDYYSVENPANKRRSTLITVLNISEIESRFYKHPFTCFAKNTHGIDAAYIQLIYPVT

Where a chain is given by its changes, count along the chain named. Results are given in words; binding and its absence hold for the method and conditions named. Some results given as binding are weak or reduced against the parent protein; the word gives no strength.

Test [1] concerns the target recombinant IL-1R1 (R&D Systems) (human) (UniProt P14778). Briefly: SPR sensorgram (FIG. 3A), IL-1R1 immobilized, dAb injected after IL-1ra.
Test [2] shares this target. Kind of test: SPR (Biacore 3000), IL-1R1 on a CM5 chip, dAb injected straight after IL-1ra.
The target is the same in test [3]. Kind of test: supernatant receptor binding assay (competition ELISA against IL-1β on captured IL-1R1).
For test [4] the target is unchanged. Kind of test: SPR off-rate screening of expression supernatants on an IL-1R1 chip, compared with the parental dAb; no off-rate printed.

B1: DOM4-122-23 (other)
VL: DIQMTQSPSSLSASVGDRVTITCRASQWIGRELRWYQQKPGKAPMFLIYHASRLQRGVPSRFSGSGSGTDFTLTISSLQPEDFATYYCQQYHGWPLTFGQGTKVEIKR
With B1, the binding entry in test [1] and in test [2] was “binds” throughout.

B2: DOM4-129 (protein)
VL: B1 VL with W28N, G30D, F46L, R56S, G93D, W94F
On to B2, for which the binding entry in test [3] is “binds”.

B3: DOM4-129-1 (other)
VL: B1 VL with W28N, G30D, G93D, W94F
Take B3: the binding entry in test [4] is “binds”.
